The other results are listed elsewhere or left out.
What was measured:
Assay in all cases: log2 fold change, soluble protein after heating vs DMSO (PISA); higher = thermal stabilisation; K562 lysate, 10 uM; active = over 0.2 and 3.5 SD of the protein, either way, in both replicates (recomputed)
nilotinib = compound: Cc1cn(-c2cc(NC(=O)c3ccc(C)c(Nc4nccc(-c5cccnc5)n4)c3)cc(C(F)(F)F)c2)cn1 [nilotinib]
Procedure, shortened: (§1)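 Log-two fold change in thermal stability relative to solvent controls is reported from duplicates. For each sample, crude K562 extract from dounce-homogenised pellets in PBS pH 7.4 with 1 mM MgCl2, at 1 mg/mL protein, was treated with 10 μM compound for 30 min. Aliquots heated for 3 min across 48°C-58°C were pooled, brought to 0.5% NP-40 at 4°C and cleared at 21,000xg for 90 min. The supernatant was quantified by TMTpro 16plex LC-MS/MS with channel sums equalised.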

The chains behind the UniProt entries cited, without tags or fusion partners. Where a name states a change or a piece, a line headed by the entry shows the natural chain unless it says otherwise.
UniProt Q9Y6M5: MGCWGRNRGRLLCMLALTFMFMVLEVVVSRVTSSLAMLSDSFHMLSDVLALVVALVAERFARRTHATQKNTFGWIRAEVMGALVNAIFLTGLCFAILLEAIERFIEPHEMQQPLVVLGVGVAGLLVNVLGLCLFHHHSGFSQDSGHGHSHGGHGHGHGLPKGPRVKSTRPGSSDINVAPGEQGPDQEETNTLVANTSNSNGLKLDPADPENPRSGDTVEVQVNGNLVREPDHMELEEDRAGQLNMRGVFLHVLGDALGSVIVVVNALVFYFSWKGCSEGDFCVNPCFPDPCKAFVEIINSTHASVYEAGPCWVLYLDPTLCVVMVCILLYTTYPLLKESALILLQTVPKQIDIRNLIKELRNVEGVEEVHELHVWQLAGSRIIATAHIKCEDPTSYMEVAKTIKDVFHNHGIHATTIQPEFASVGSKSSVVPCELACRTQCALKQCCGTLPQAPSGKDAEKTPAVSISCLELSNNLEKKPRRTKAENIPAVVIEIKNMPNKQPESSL
UniProt Q6PML9: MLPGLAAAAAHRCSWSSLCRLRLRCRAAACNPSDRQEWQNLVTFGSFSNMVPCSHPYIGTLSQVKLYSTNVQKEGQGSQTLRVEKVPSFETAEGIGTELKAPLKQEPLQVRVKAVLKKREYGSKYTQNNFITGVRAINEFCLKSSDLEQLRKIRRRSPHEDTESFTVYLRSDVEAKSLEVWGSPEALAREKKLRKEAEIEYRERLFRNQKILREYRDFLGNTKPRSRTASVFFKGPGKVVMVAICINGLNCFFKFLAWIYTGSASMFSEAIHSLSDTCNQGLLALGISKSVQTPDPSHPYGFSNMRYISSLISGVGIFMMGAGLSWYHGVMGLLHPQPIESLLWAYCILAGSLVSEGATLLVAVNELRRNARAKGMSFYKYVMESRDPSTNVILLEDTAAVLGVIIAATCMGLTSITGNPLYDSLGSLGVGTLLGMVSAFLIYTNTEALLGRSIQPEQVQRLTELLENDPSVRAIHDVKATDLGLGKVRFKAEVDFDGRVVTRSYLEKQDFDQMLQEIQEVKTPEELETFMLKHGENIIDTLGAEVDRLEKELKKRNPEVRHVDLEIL
UniProt Q9UPY5: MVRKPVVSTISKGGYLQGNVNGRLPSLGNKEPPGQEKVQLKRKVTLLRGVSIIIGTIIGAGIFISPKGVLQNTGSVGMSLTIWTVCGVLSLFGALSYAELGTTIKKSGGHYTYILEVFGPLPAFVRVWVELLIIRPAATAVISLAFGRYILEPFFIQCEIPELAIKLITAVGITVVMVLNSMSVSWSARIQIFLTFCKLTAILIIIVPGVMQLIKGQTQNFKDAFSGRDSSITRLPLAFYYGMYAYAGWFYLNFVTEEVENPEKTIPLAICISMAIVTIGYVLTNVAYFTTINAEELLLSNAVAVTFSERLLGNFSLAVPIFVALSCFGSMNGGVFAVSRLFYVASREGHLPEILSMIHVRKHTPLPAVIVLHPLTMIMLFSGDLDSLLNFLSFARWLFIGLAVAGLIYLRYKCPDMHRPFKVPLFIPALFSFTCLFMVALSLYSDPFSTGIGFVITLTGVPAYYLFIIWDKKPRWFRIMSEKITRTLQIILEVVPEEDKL
UniProt P19634, whole entry, looked up: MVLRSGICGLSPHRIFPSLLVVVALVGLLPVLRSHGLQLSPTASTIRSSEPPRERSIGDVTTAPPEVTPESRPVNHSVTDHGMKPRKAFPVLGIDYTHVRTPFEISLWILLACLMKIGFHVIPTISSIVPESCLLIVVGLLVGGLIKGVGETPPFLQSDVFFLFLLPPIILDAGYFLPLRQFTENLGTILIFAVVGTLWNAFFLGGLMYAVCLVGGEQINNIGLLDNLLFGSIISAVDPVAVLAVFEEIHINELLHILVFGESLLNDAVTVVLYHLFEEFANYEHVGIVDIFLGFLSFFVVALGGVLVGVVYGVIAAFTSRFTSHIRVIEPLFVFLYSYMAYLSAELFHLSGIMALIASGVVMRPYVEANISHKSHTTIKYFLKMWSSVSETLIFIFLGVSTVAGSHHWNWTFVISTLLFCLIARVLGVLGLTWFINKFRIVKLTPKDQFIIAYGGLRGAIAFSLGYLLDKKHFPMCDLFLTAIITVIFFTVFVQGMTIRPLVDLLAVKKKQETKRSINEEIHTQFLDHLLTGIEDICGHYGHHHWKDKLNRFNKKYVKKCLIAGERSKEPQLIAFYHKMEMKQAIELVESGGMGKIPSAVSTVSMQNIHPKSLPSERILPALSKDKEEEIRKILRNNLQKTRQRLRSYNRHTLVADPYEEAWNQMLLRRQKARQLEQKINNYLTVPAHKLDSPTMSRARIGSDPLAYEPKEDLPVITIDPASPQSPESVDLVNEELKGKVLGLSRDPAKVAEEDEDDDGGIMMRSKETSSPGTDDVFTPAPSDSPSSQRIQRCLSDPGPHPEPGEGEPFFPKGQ
UniProt O95258: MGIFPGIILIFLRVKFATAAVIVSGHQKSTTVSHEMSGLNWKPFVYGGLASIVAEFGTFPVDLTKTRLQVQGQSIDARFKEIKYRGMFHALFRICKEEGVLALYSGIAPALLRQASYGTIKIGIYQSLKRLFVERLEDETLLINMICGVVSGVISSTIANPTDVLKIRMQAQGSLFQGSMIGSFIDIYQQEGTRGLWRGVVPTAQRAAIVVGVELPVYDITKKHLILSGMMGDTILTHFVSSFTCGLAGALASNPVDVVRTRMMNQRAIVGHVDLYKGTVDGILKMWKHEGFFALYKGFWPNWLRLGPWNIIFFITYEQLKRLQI
UniProt Q9UJS0: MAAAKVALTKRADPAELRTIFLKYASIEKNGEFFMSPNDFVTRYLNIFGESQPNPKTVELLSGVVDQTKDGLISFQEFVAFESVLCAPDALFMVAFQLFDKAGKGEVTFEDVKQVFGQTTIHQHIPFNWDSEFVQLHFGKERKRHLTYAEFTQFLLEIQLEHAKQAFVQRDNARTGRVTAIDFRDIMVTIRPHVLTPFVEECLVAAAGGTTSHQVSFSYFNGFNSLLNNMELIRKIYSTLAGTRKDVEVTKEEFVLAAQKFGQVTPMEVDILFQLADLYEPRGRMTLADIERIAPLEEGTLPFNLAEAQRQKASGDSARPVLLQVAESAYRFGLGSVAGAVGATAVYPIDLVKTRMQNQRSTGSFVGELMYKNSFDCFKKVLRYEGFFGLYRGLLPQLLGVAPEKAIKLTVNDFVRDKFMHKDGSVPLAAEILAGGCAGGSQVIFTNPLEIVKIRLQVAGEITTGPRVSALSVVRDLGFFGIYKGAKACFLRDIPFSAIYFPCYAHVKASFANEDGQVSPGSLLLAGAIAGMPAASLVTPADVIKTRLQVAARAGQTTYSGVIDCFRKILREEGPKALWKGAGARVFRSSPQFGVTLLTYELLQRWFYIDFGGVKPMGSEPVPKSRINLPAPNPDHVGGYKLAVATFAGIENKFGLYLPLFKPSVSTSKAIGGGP
UniProt Q5SVS4: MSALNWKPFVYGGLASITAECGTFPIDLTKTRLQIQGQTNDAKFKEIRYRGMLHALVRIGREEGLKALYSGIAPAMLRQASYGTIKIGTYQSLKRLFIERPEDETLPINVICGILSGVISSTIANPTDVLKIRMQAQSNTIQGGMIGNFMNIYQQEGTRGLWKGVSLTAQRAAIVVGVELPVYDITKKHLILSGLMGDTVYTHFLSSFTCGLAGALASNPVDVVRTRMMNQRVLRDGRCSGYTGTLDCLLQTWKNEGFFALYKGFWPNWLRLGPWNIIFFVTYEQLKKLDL
UniProt O43808: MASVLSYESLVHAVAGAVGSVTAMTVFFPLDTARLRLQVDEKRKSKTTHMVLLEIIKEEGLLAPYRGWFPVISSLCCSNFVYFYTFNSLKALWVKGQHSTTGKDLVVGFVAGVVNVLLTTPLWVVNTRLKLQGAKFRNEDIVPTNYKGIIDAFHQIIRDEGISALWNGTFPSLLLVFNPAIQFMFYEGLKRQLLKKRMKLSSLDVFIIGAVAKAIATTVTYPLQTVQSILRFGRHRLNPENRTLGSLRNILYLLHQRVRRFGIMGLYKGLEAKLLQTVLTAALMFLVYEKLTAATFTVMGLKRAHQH
UniProt P02730: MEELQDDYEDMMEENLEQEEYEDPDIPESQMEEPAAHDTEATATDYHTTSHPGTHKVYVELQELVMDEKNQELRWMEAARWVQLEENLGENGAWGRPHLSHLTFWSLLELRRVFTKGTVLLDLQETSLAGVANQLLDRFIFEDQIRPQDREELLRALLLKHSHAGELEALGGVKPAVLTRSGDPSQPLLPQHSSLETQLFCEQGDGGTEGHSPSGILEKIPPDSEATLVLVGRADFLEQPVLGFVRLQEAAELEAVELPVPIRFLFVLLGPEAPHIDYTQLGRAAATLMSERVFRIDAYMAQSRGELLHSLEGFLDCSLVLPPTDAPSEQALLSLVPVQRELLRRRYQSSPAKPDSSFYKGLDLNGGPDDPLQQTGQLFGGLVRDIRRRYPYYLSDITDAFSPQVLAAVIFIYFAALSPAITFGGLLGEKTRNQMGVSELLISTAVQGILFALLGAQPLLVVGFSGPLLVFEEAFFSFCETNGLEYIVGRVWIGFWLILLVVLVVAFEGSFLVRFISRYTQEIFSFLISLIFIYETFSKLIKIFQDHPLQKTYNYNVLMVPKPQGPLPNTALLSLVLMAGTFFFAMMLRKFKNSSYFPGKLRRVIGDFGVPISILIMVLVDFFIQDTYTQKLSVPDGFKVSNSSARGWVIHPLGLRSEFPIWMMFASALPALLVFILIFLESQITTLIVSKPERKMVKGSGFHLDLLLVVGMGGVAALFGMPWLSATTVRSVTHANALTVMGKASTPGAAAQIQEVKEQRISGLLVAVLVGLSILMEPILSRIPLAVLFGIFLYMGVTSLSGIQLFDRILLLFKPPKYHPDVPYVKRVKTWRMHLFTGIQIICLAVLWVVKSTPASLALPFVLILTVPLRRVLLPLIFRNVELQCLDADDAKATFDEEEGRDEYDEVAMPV
UniProt O43826: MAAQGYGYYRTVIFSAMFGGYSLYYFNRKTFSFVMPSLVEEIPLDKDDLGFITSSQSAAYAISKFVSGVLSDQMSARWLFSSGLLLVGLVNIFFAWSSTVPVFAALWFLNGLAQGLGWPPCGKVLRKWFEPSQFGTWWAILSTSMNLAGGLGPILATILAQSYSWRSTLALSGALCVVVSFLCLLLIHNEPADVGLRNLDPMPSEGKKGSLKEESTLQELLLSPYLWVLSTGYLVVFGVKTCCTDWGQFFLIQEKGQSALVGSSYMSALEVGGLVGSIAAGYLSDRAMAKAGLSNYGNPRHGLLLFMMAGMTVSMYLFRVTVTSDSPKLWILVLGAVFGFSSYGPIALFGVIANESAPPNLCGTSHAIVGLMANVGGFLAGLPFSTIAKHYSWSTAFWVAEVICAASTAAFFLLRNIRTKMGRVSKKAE
UniProt Q7Z2H8: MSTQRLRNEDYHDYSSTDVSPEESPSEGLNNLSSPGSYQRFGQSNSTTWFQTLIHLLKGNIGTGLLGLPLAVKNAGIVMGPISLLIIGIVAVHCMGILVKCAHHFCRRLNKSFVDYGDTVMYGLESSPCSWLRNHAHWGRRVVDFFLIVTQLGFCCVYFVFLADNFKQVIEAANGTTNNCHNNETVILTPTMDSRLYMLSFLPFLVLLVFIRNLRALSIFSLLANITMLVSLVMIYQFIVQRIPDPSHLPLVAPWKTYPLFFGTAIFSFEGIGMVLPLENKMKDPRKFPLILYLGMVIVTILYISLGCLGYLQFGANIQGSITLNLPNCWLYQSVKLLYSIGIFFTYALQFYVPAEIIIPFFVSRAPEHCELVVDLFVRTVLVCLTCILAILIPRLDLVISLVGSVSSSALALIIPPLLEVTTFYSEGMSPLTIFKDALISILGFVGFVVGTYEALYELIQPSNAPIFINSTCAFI
UniProt P12235: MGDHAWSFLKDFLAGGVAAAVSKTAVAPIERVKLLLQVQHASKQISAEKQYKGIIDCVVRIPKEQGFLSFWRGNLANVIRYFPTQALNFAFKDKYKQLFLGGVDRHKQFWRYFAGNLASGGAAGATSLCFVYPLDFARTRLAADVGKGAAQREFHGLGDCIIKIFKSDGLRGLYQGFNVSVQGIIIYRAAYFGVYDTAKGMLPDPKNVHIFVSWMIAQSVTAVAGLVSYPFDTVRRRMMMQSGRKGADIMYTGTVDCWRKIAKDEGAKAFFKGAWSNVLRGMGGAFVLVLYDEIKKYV
UniProt Q86VD7: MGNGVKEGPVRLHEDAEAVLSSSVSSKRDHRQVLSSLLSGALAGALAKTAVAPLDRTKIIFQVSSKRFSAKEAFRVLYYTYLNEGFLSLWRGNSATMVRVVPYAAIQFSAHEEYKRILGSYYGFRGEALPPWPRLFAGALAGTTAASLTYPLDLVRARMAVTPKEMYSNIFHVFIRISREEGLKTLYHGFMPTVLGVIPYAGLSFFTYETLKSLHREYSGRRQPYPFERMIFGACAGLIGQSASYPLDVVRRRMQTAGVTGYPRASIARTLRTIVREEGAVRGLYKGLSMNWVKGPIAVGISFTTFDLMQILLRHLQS

[1] = compound: Cc1nc(Nc2n[nH]c3c2CN(C(=O)N[C@H](CN(C)C)c2ccccc2)C3(C)C)c2sccc2n1
Procedure, shortened: as §1

dasatinib = compound: Cc1nc(Nc2ncc(C(=O)Nc3c(C)cccc3Cl)s2)cc(N2CCN(CCO)CC2)n1 [dasatinib]
Procedure, shortened: as §1

[2] = compound: Cc1ncc(-c2ccnc(Nc3ccc(S(C)(=O)=O)cc3)n2)n1C(C)C
Procedure, shortened: as §1

[3] = compound: Cn1cc(-c2ccc3c(c2)CCN3C(=O)Cc2cccc(C(F)(F)F)c2)c2c(N)ncnc21
Procedure, shortened: as §1

quisinostat = compound: Cn1cc(CNCC2CCN(c3ncc(C(=O)NO)cn3)CC2)c2ccccc21 [quisinostat]
Procedure, shortened: as §1

tipifarnib = compound: Cn1cncc1[C@@](N)(c1ccc(Cl)cc1)c1ccc2c(c1)c(-c1cccc(Cl)c1)cc(=O)n2C [tipifarnib]
Procedure, shortened: as §1

[4] = compound: NC(=O)Nc1cc(-c2cccc(F)c2)sc1C(=O)N[C@H]1CCCNC1
Procedure, shortened: as §1

[5] = compound: NC(=O)c1cnc(N[C@@H]2CCCC[C@@H]2N)nc1Nc1cccc(-n2nccn2)c1
Procedure, shortened: as §1

[6] = compound: NC1(c2ccc(-c3nc4ccn5c(=O)[nH]nc5c4cc3-c3ccccc3)cc2)CCC1
Procedure, shortened: as §1

Measured: log2 fold change

SMAP2 (UniProt Q8WU79)
inactive: nilotinib -0.058 | [1] 0.026 | dasatinib -0.013 | [2] 0.037 | [3] 0.06 | quisinostat 0.072 | tipifarnib -0.038 | [4] 0.076 | [5] 0.026 | [6] 0.022

SLC30A1 (UniProt Q9Y6M5)
inactive: nilotinib 0.035 | [1] -0.073 | dasatinib 0.028 | [2] 0.023 | [3] 0.021 | quisinostat -0.009 | tipifarnib -0.017 | [4] 0.025 | [5] -0.018 | [6] 0.013

SLC9A3R1 (UniProt O14745)
inactive: nilotinib 0.021 | [1] -0.018 | dasatinib 0.029 | [2] -0.015 | [3] -0.023 | quisinostat -0.005 | tipifarnib 0.02 | [4] -0.003 | [5] -0.022 | [6] -0.015

SLC44A2 (UniProt Q8IWA5)
inactive: nilotinib 0.092 | [1] 0.037 | dasatinib 0.158 | [2] -0.049 | [3] -0.066 | quisinostat 0.023 | tipifarnib -0.038 | [4] -0.083 | [5] -0.014 | [6] 0.023

SLC30A9 (UniProt Q6PML9)
inactive: nilotinib -0.026 | [1] 0.013 | dasatinib -0.035 | [2] -0.049 | [3] 0.055 | quisinostat 0.041 | tipifarnib 0.14 | [4] -0.044 | [5] -0.026 | [6] -0.008

SLC6A8 (UniProt P48029)
inactive: nilotinib 0.024 | [1] -0.038 | dasatinib -0.021 | [2] 0.045 | [3] -0.008 | quisinostat 0.006 | tipifarnib -0.063 | [4] -0.057 | [5] 0.021 | [6] -0.015

SLC6A9 isoform 2 (UniProt P48067)
inactive: nilotinib -0.033 | [1] -0.002 | dasatinib 0.105 | [2] -0.002 | [3] -0.052 | quisinostat -0.041 | tipifarnib 0.102 | [4] 0.049 | [5] -0.036 | [6] -0.044

SLK isoform 2 (UniProt Q9H2G2)
inactive: nilotinib -0.036 | [1] 0.02 | dasatinib 0.107 | [2] 0.028 | [3] -0.109 | quisinostat -0.013 | tipifarnib 0.033 | [4] 0.11 | [5] -0.005 | [6] -0.027

SLC7A11 (UniProt Q9UPY5)
inactive: nilotinib 0.024 | [1] 0.024 | dasatinib -0.026 | [2] -0.011 | [3] -0.04 | quisinostat -0.011 | tipifarnib 0.024 | [4] 0.019 | [5] 0.001 | [6] 0.041

SLC27A2 (UniProt O14975)
inactive: nilotinib 0.056 | [1] -0.027 | dasatinib 0.038 | [2] -0.053 | [3] -0.011 | quisinostat -0.078 | tipifarnib 0.031 | [4] -0.06 | [5] -0.033 | [6] 0.029

SLC35B3 (UniProt Q9H1N7)
inactive: nilotinib -0.067 | [1] -0.024 | dasatinib -0.053 | [2] -0.065 | [3] 0.042 | quisinostat -0.223 | tipifarnib 0.133 | [4] -0.03 | [5] -0.017 | [6] -0.005

SLC35B1 isoform 2 (UniProt P78383)
inactive: nilotinib 0.019 | [1] 0.04 | dasatinib -0.094 | [2] -0.03 | [3] -0.074 | quisinostat 0.217 | tipifarnib -0.183 | [4] 0.144 | [5] -0.008 | [6] 0.017

Pulled one by one from the list above (two):
SLC27A2 (UniProt O14975)
inactive: nilotinib 0.056 | [1] -0.027 | dasatinib 0.038 | [2] -0.053 | [3] -0.011 | quisinostat -0.078 | tipifarnib 0.031 | [4] -0.06 | [5] -0.033 | [6] 0.029

SLC7A11 (UniProt Q9UPY5)
inactive: nilotinib 0.024 | [1] 0.024 | dasatinib -0.026 | [2] -0.011 | [3] -0.04 | quisinostat -0.011 | tipifarnib 0.024 | [4] 0.019 | [5] 0.001 | [6] 0.041

(listing goes on)

SLC9A1 (UniProt P19634)
inactive: nilotinib -0.098 | [1] 0.117 | dasatinib -0.035 | [2] -0.016 | [3] 0.02 | quisinostat 0.001 | tipifarnib 0.011 | [4] 0.081 | [5] 0.047 | [6] 0.093

SLC25A14 isoform 3 (UniProt O95258)
inactive: nilotinib 0.056 | [1] -0.072 | dasatinib 0.027 | [2] 0.047 | [3] 0.093 | quisinostat -0.123 | tipifarnib -0.093 | [4] 0.032 | [5] 0.015 | [6] 0

SLC30A10 (UniProt Q6XR72)
inactive: nilotinib 0.017 | [1] -0.086 | dasatinib -0.103 | [2] 0.027 | [3] -0.008 | quisinostat -0.047 | tipifarnib -0.1 | [4] 0.013 | [5] 0.016 | [6] 0.047

SLC27A4 (UniProt Q6P1M0)
inactive: nilotinib -0.061 | [1] 0.002 | dasatinib 0.026 | [2] -0.036 | [3] 0.048 | quisinostat -0.123 | tipifarnib 0.096 | [4] 0.036 | [5] -0.023 | [6] 0.036

SLC25A13 isoform 2 (UniProt Q9UJS0)
inactive: nilotinib 0.026 | [1] -0.011 | dasatinib 0.016 | [2] -0.012 | [3] -0.023 | quisinostat 0.054 | tipifarnib -0.018 | [4] 0.012 | [5] -0.02 | [6] -0.017

SLC25A30 (UniProt Q5SVS4)
inactive: nilotinib 0.044 | [1] -0.037 | dasatinib -0.023 | [2] 0.046 | [3] -0.038 | quisinostat -0.092 | tipifarnib -0.216 | [4] 0.024 | [5] -0.015 | [6] -0.021

SMAP1 isoform 2 (UniProt Q8IYB5)
inactive: nilotinib 0.029 | [1] -0.034 | dasatinib 0.006 | [2] -0.017 | [3] -0.033 | quisinostat 0.024 | tipifarnib 0.007 | [4] -0.01 | [5] -0.013 | [6] 0.023

SLC25A21 (UniProt Q9BQT8)
inactive: nilotinib 0.009 | [1] 0.037 | dasatinib 0.037 | [2] -0.011 | [3] 0.016 | quisinostat -0.03 | tipifarnib 0.028 | [4] 0.001 | [5] -0.009 | [6] -0.013

SLC25A38 (UniProt Q96DW6)
inactive: nilotinib -0.097 | [1] -0.142 | dasatinib 0.015 | [2] -0.171 | [3] 0.15 | quisinostat -0.068 | tipifarnib -0.061 | [4] -0.019 | [5] -0.138 | [6] 0.06

SLC25A17 (UniProt O43808)
inactive: nilotinib -0.049 | [1] 0.006 | dasatinib 0.01 | [2] 0.032 | [3] 0.023 | quisinostat -0.125 | tipifarnib -0.068 | [4] 0.028 | [5] 0.038 | [6] -0.026

SLC4A1 (UniProt P02730)
inactive: nilotinib 0.056 | [1] 0 | dasatinib -0.004 | [2] -0.026 | [3] 0.042 | quisinostat 0.026 | tipifarnib -0.121 | [4] -0.078 | [5] 0.013 | [6] 0.021

SLIRP (UniProt Q9GZT3)
inactive: nilotinib 0 | [1] 0.005 | dasatinib -0.03 | [2] 0.001 | [3] 0.014 | quisinostat 0.043 | tipifarnib 0.01 | [4] -0.009 | [5] 0.024 | [6] 0.01

SLC37A4 isoform 2 (UniProt O43826)
inactive: nilotinib 0.01 | [1] -0.002 | dasatinib 0.058 | [2] -0.035 | [3] 0.035 | quisinostat -0.084 | tipifarnib -0.035 | [4] -0.002 | [5] 0.01 | [6] -0.072

SLC36A1 (UniProt Q7Z2H8)
inactive: nilotinib 0.082 | [1] -0.026 | dasatinib 0.079 | [2] -0.043 | [3] -0.063 | quisinostat -0.074 | tipifarnib 0.037 | [4] 0.021 | [5] 0.032 | [6] 0.014

SLC26A6 (UniProt Q9BXS9)
inactive: nilotinib 0.057 | [1] 0.05 | dasatinib -0.4 | [2] 0.164 | [3] -0.154 | quisinostat 0.006 | tipifarnib 0.05 | [4] 0.033 | [5] 0.054 | [6] -0.128

SLC25A4 (UniProt P12235)
inactive: nilotinib 0.019 | [1] 0.031 | dasatinib 0.052 | [2] -0.038 | [3] 0.004 | quisinostat 0.064 | tipifarnib 0.006 | [4] 0.007 | [5] -0.019 | [6] 0.034

SLC25A42 (UniProt Q86VD7)
inactive: nilotinib 0.03 | [1] 0.049 | dasatinib 0.03 | [2] 0.005 | [3] -0.041 | quisinostat -0.092 | tipifarnib 0.011 | [4] 0.051 | [5] 0.026 | [6] -0.073
